Laboratory results: PubChem BioAssay AID1259425 (University of Nebraska Medical Center, 2018)

- Aim: 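Seek colon cancer weak points whose silencing resembles KSR1 loss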 (primary screen)
- Cells: HCT116 human colon cancer cells
- Knock-down reagent: siRNA pool against human genes, 50 nM siRNA
- Measurement: 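mRNA of six signature genes measured together by branched-DNA assay after 50 nM siRNA pool, blank removed, divided by geometric mean of two housekeeping genes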
- Reading the numbers: BNIP3L mRNA: higher = more BNIP3L transcript after knockdown
This is one part, drawn at random, of about 14,000 deposited reagents. Some reagents were tested in more than one well and are listed for each. Not all columns of the deposit are shown. No sequences are given here. The record does not give: the time to read-out.

{"gene": "ZSCAN32", "BNIP3L mRNA, set 1": 0.169}
{"gene": "YIPF1", "BNIP3L mRNA, set 1": 0.0814}
{"gene": "IRF2BPL", "BNIP3L mRNA, set 1": 0.0774}
{"gene": "PPP1CC", "BNIP3L mRNA, set 1": 0.0856}
{"gene": "AVPR1B", "BNIP3L mRNA, set 1": 0.198}
{"gene": "AVPR1B", "BNIP3L mRNA, set 1": 0.154}
{"gene": "PCDHGB4", "BNIP3L mRNA, set 1": 0.0853}
{"gene": "FSTL5", "BNIP3L mRNA, set 1": 0.0867}

The list goes on (2 carried over from the part before).
{"gene": "PCDHGB4", "BNIP3L mRNA, set 1": 0.0853}
{"gene": "FSTL5", "BNIP3L mRNA, set 1": 0.0867}
{"gene": "AGPAT4", "BNIP3L mRNA, set 1": 0.245}
{"gene": "NDUFS8", "BNIP3L mRNA, set 1": 0.108}
{"gene": "GSTM2", "BNIP3L mRNA, set 1": 0.148}
{"gene": "H1-10", "BNIP3L mRNA, set 1": 0.0907}
